According to publication PMC2954829:
Results are given in words; binding and its absence hold for the method and conditions named. For some assays here: Binding seen in cells or lysates may run through a third protein. Tags and fused reporters may be left off the sequences shown. Some binding calls cover weakened binding; strength is not graded here.

Protein sequences, listed by entry. Tags and fused reporters are not part of them.
UniProt Q08297: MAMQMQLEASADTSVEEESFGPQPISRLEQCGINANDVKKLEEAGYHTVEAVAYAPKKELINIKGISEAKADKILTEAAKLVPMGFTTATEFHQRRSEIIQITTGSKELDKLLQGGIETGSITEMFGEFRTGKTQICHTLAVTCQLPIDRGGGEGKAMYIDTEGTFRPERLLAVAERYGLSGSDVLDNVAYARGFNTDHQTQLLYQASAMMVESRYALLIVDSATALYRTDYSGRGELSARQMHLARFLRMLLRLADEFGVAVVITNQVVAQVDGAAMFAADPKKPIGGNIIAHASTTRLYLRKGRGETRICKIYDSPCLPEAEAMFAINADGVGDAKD

T1: GST-Sfr1 (mouse) (UniProt Q8BP27)
T1 sequence: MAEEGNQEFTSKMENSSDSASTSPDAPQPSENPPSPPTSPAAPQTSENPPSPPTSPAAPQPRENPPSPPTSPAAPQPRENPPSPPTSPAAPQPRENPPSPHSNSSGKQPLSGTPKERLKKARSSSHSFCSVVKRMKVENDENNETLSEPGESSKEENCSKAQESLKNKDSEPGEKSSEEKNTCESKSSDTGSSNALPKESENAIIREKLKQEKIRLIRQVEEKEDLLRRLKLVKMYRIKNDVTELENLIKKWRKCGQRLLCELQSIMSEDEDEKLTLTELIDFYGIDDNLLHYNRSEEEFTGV

B1: mouse Sfr1 (303 amino acids), Gal4 fusion for yeast two-hybrid (protein, UniProt Q8BP27-2 1-303)
chain: T1 sequence

Key:
GST-Sfr1 (mouse) = target: T1, GST-Sfr1 (mouse); assay: pull-down; GST or GST fusion from E. coli lysate immobilized to MagneGST; mixed with E. coli lysate (40 µg of proteins) holding His6-Sfr1 or Rad51; R-buffer (20 mM Tris-HCl pH 7.6, 1 mM EDTA, 100 mM NaCl, 0.1% Triton X-100, 1 mM DTT, 10% glycerol), three hours at 4°C; CBB staining and Western blotting; for Rad51 also with ethidium bromide or DNase I; only the target purified
[1] = target: mouse Sfr1 (303 amino acids), Gal4 fusion for yeast two-hybrid (mouse) (UniProt Q8BP27); assay: two-hybrid; Matchmaker Two-Hybrid system 3 (Clontech), Gal4AD (pGADT7) and Gal4DBD (pGBKT7) fusions; growth on SD media without leucine, tryptophan, histidine and adenine

Molecule	binding (GST-Sfr1 (mouse))	binding [1]
recombinant Rad51 (from UniProt Q08297 1-339)	no binding	
B1		binds
